Earlier results as cited in patent US20070197568A1, “Methods of using SAHA and Erlotinib for treating cancer” (priority 2005, published 2007).

Assays:
[1] = test system: carcinogen-induced (N-methylnitrosourea) mammary tumors; conditions: rats, SAHA in diet over the 130 days of the study
[2] = animals

## O=C(CCCCCCC(=O)Nc1ccccc1)NO [SAHA, N-Hydroxy-N′-phenyl octanediamide]
[1]
  inhibition of development and continued growth of mammary tumors: effective at inhibiting the development and continued growth
[2]
  inhibition of tumor growth: effective at inhibiting tumor growth
